Earlier results as cited in patent US8960128B2, “Topical anesthetic composition” (Animal Ethics Pty Ltd, priority 2005, dated 2015).
Some results were stated once for a whole list of compounds, not compound by compound. At least one structure is not confirmed: it was looked up by name or label, or the drawing left a doubt. Some ranges recur; such a range may be that of the whole group of compounds.

Settings: usually; for duration of action (anesthesia): agents with slower onset but greater duration of action; for onset of action: agents with a rapid onset of action

SMILES	duration of action (anesthesia)	onset of action
CCCCN1CCCCC1C(=O)Nc1c(C)cccc1C (stereo not shown) [bupivacaine]	4 to 12 h	–
CCCNC(C)C(=O)Nc1ccccc1C (stereo not shown) [prilocalne]	–	5 to 10 min
CCCCNc1ccc(C(=O)OCCN(C)C)cc1 [amethocaine]	4 to 12 h	5 to 10 min
